Data: article PMC7930037
Results are given in words; binding and its absence hold for the method and conditions named. In cells and extracts the contact can be indirect. Here binding means that the protein was enriched with, or labelled near, the bait; the list need not be complete.

Biological target: T1, WW domain-binding protein 2 (endogenous) (human (endogenous in LO2)) (UniProt Q969T9)
T1 sequence: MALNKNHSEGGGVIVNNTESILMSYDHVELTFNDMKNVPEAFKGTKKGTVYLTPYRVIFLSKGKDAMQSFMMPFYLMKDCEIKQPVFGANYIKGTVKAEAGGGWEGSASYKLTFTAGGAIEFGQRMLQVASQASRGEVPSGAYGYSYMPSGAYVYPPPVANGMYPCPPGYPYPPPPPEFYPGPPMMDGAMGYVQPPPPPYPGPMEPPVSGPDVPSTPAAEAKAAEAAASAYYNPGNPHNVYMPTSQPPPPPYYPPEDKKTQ
Assay: affinity purification with mass spectrometry; whole protein of LO2 cells incubated with anti-WBP2 antibody overnight; eluate electrophoresed, silver-stained, differing bands cut out for LC-MS/MS; anti-IgG as negative control

binding: binds
Substance: AMPK complex (endogenous, LO2 cells) (human (endogenous in LO2))
